The supplement of paper PMC10849652
Some of the results follow.

Protein sequences, listed by entry. Tags and fused reporters are not part of them. Lines headed by an entry give the natural chain unless they say otherwise; changes in a name come on top.
UniProt Q96BH1: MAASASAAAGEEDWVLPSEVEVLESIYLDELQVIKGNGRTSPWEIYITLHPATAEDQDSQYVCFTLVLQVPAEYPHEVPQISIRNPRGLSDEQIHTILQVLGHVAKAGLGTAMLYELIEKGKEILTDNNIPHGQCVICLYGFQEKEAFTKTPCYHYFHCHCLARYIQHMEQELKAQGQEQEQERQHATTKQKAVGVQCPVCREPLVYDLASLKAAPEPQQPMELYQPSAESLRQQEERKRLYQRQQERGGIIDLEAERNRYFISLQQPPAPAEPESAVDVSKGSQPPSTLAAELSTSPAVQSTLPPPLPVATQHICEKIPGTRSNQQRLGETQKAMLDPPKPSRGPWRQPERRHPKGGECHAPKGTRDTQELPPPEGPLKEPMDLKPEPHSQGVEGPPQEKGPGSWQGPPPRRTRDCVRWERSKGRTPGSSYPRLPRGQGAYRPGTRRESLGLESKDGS
UniProt P49247: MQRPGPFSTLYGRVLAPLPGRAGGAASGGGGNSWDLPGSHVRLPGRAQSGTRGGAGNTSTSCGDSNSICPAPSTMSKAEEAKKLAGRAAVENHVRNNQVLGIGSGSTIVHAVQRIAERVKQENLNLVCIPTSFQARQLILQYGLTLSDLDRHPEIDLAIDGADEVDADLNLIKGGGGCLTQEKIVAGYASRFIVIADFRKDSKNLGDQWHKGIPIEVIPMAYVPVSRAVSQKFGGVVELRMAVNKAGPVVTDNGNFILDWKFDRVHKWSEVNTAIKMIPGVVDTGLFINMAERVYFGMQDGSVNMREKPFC
UniProt P78346: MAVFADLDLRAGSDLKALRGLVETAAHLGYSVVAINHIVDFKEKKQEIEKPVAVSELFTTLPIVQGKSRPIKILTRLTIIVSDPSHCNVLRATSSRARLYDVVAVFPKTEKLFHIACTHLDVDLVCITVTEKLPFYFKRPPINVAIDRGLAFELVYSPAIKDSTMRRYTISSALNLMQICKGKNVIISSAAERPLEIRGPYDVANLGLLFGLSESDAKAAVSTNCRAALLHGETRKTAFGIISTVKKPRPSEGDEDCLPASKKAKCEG
UniProt Q9UBF6, whole entry, looked up: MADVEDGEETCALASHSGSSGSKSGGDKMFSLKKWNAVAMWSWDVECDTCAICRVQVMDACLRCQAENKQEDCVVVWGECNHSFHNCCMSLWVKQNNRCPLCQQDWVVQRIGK

Tests used:
Assay in all cases: log2 fold change, soluble protein after heating vs DMSO (PISA); higher = thermal stabilisation; K562 cells, 10 uM, 30 min; active = over 0.2 and 3.5 SD of the protein, either way, in both replicates (recomputed)
[1] = compound: CC[C@@H]1C(=O)N(C)c2cnc(Nc3ccc(C(=O)NC4CCN(C)CC4)cc3OC)nc2N1C1CCCC1
Summary of the method: (§1)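 K562 cells at 2×10^6 cells/mL were exposed to 10 μM compound for 30 min, then aliquots were heated for 3 min across 48°C-58°C, pooled, and extracted in PBS containing 0.5% NP-40 at 4°C. The supernatant after 21,000xg for 90 min was taken as soluble protein and measured by TMTpro 16plex LC-MS/MS with channel sums equalised. Thermal stability is reported relative to control samples, with values from duplicates. Fold changes are given on a log2 scale.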

volasertib = compound: CC[C@@H]1C(=O)N(C)c2cnc(Nc3ccc(C(=O)N[C@H]4CC[C@H](N5CCN(CC6CC6)CC5)CC4)cc3OC)nc2N1C(C)C [volasertib]
Summary of the method: as §1

[2] = compound: CC[C@H](C)N1C=C(C2=C(C=C(C=C21)C3=CN=C(C=C3)N4CCNCC4)C(=O)NCC5=C(C=C(NC5=O)C)C)C
Summary of the method: as §1

epoxomicin = compound: CC[C@H](C)[C@@H](C(=O)N[C@@H]([C@@H](C)O)C(=O)N[C@@H](CC(C)C)C(=O)[C@]1(CO1)C)NC(=O)[C@H]([C@@H](C)CC)N(C)C(=O)C [epoxomicin]
Summary of the method: as §1

[3] = compound: CCn1c(C(=O)N(C2CC2)C2CC2)cc2c3c(ncn3C)c(Nc3cc(C)n(C)n3)nc21
Summary of the method: as §1

[4] = compound: CCn1cc(-c2ccnc3[nH]c(-c4cccc(CN(C)C)c4)cc23)c(-c2ccc(NC(=O)N(C)C)cc2)n1
Summary of the method: as §1

[5] = compound: CN(C)CC(=O)Nc1ccc2[nH]c(=O)c3ccccc3c2c1
Summary of the method: as §1

rosiglitazone = compound: CN(CCOC1=CC=C(C=C1)C[C@H]2C(=O)NC(=O)S2)C3=CC=CC=N3 (racemic) [rosiglitazone]
Summary of the method: as §1

[6] = compound: CN1C2=C(C3=C1C(=O)N(N=C3)CC4=CC(=CC=C4)N)SC(=C2)S(=O)C
Summary of the method: as §1

[7] = compound: CN1CCC(CNc2ccc3ncc(-c4cccc(OC(F)(F)F)c4)n3n2)CC1
Summary of the method: as §1

saracatinib = compound: CN1CCN(CCOc2cc(OC3CCOCC3)c3c(Nc4c(Cl)ccc5c4OCO5)ncnc3c2)CC1 [saracatinib]
Summary of the method: as §1

sotrastaurin = compound: CN1CCN(c2nc(C3=C(c4c[nH]c5ccccc45)C(=O)NC3=O)c3ccccc3n2)CC1 [sotrastaurin]
Summary of the method: as §1

alvocidib = compound: CN1CC[C@H](c2c(O)cc(O)c3c(=O)cc(-c4ccccc4Cl)oc23)[C@H](O)C1 [alvocidib]
Summary of the method: as §1

Tubastatin A = compound: CN1CCc2c(c3ccccc3n2Cc2ccc(C(=O)NO)cc2)C1 [Tubastatin A]
Summary of the method: as §1

[8] = compound: CNC(=O)C1=CC=CC=C1NC2=NC(=NC=C2Cl)NC3=C(C=C(C=C3)N4CCOCC4)OC
Summary of the method: as §1

defactinib = compound: CNC(=O)c1ccc(Nc2ncc(C(F)(F)F)c(NCc3nccnc3N(C)S(C)(=O)=O)n2)cc1 [defactinib]
Summary of the method: as §1

rucaparib = compound: CNCc1ccc(-c2[nH]c3cc(F)cc4c3c2CCNC4=O)cc1 [rucaparib]
Summary of the method: as §1

[9] = compound: CNc1nc(-c2ccc3c(N)n[nH]c3c2)cc(N2C[C@@H](C(=O)NC3CCCCC3)CC[C@H]2C)n1
Summary of the method: as §1

encorafenib = compound: COC(=O)N[C@@H](C)CNc1nccc(-c2cn(C(C)C)nc2-c2cc(Cl)cc(NS(C)(=O)=O)c2F)n1 [encorafenib]
Summary of the method: as §1

[10] = compound: COC(=O)[C@H](CCSC)NC(=O)C1=C(C=C(C=C1)NC[C@H](CS)N)C2=CC=CC=C2
Summary of the method: as §1

Measured: log2 fold change

RPS7 (UniProt P62081)
inactive: [1] 0.176 | volasertib 0.435 | [2] 0.068 | epoxomicin -0.261 | [3] 0.036 | [4] 0.115 | [5] -0.122 | rosiglitazone -0.125 | [6] 0.223 | [7] 0.146 | saracatinib -0.091 | sotrastaurin 0.003 | alvocidib 0.212 | Tubastatin A 0.107 | [8] 0.075 | defactinib 0.279 | rucaparib 0.231 | [9] 0.093 | encorafenib 0.073 | [10] -0.006

RPL26L1 (UniProt Q9UNX3)
inactive: [1] 0.174 | volasertib 0.531 | [2] 0.04 | epoxomicin -0.329 | [3] -0.003 | [4] 0.201 | [5] -0.127 | rosiglitazone -0.135 | [6] 0.319 | [7] 0.298 | saracatinib -0.104 | sotrastaurin -0.028 | alvocidib 0.386 | Tubastatin A 0.169 | [8] 0.096 | defactinib 0.376 | rucaparib 0.407 | [9] 0.147 | encorafenib 0.116 | [10] -0.04

RPL7A (UniProt P62424)
inactive: [1] 0.255 | volasertib 0.799 | [2] -0.022 | epoxomicin -0.762 | [3] 0.089 | [4] 0.309 | [5] -0.255 | rosiglitazone -0.315 | [6] 0.483 | [7] 0.496 | saracatinib -0.16 | sotrastaurin -0.035 | alvocidib 0.425 | Tubastatin A 0.213 | [8] 0.075 | defactinib 0.622 | rucaparib 0.504 | [9] 0.224 | encorafenib 0.231 | [10] 0.043

RPL39P5 (UniProt Q59GN2)
inactive: [1] 0.173 | volasertib 0.389 | [2] -0.042 | epoxomicin -0.229 | [3] 0.009 | [4] 0.18 | [5] -0.168 | rosiglitazone -0.185 | [6] 0.352 | [7] 0.281 | saracatinib -0.073 | sotrastaurin 0.087 | alvocidib 0.283 | Tubastatin A 0.138 | [8] 0.005 | defactinib 0.26 | rucaparib 0.325 | [9] 0.079 | encorafenib 0.106 | [10] 0.034

RNF25 (UniProt Q96BH1)
inactive: [1] -0.029 | volasertib -0.061 | [2] 0.02 | epoxomicin 0.028 | [3] -0.014 | [4] -0.161 | [5] 0.031 | rosiglitazone -0.009 | [6] -0.092 | [7] 0.009 | saracatinib -0.06 | sotrastaurin -0.028 | alvocidib -0.082 | Tubastatin A 0.101 | [8] -0.01 | defactinib -0.072 | rucaparib -0.019 | [9] -0.061 | encorafenib 0.019 | [10] -0.015

RPL30 (UniProt P62888)
inactive: [1] 0.31 | volasertib 0.764 | [2] -0.014 | epoxomicin -0.731 | [3] 0.034 | [4] 0.237 | [5] -0.291 | rosiglitazone -0.353 | [6] 0.429 | [7] 0.434 | saracatinib -0.139 | sotrastaurin 0.029 | alvocidib 0.416 | Tubastatin A 0.226 | [8] 0.049 | defactinib 0.537 | rucaparib 0.488 | [9] 0.189 | encorafenib 0.242 | [10] -0.029

RPIA (UniProt P49247)
inactive: [1] 0.027 | volasertib 0.076 | [2] -0.028 | epoxomicin 0.027 | [3] -0.005 | [4] 0.012 | [5] 0.001 | rosiglitazone 0.018 | [6] -0.053 | [7] -0.015 | saracatinib 0.004 | sotrastaurin 0.004 | alvocidib -0.002 | Tubastatin A -0.022 | [8] -0.01 | defactinib -0.002 | rucaparib -0.017 | [9] -0.019 | encorafenib -0.015 | [10] -0.014

RPP30 isoform 2 (UniProt P78346)
inactive: [1] 0.103 | volasertib 0.126 | [2] -0.001 | epoxomicin -0.032 | [3] 0.009 | [4] -0.017 | [5] -0.099 | rosiglitazone -0.039 | [6] 0.064 | [7] 0.053 | saracatinib -0.015 | sotrastaurin -0.066 | alvocidib 0.003 | Tubastatin A -0.004 | [8] -0.049 | defactinib 0.052 | rucaparib 0.131 | [9] -0.056 | encorafenib -0.017 | [10] 0.088

RNF7 (UniProt Q9UBF6)
inactive: [1] 0.026 | volasertib 0.044 | [2] 0.471 | epoxomicin -0.006 | [3] 0.04 | [4] 0.033 | [5] 0.052 | rosiglitazone 0.007 | [6] -0.052 | [7] 0.066 | saracatinib -0.008 | sotrastaurin 0.154 | alvocidib -0.033 | Tubastatin A -0.034 | [8] -0.012 | defactinib -0.031 | rucaparib -0.004 | [9] 0 | encorafenib -0.015 | [10] 0.057

RPS24 isoform 4 (UniProt P62847)
inactive: [1] 0.202 | volasertib 0.421 | [2] 0.013 | epoxomicin -0.201 | [3] -0.004 | [4] 0.165 | [5] -0.1 | rosiglitazone -0.132 | [6] 0.226 | [7] 0.158 | saracatinib -0.065 | sotrastaurin -0.011 | alvocidib 0.218 | Tubastatin A 0.12 | [8] 0.043 | defactinib 0.275 | rucaparib 0.172 | [9] 0.121 | encorafenib 0.082 | [10] 0.01

RPL18 (UniProt Q07020)
inactive: [1] 0.264 | volasertib 0.876 | [2] -0.039 | epoxomicin -0.634 | [3] 0.09 | [4] 0.35 | [5] -0.293 | rosiglitazone -0.393 | [6] 0.608 | [7] 0.466 | saracatinib -0.142 | sotrastaurin -0.037 | alvocidib 0.485 | Tubastatin A 0.249 | [8] 0.074 | defactinib 0.686 | rucaparib 0.516 | [9] 0.219 | encorafenib 0.234 | [10] 0.085

RPL18A (UniProt Q02543)
inactive: [1] 0.304 | volasertib 0.862 | [2] -0.002 | epoxomicin -0.705 | [3] 0.097 | [4] 0.359 | [5] -0.32 | rosiglitazone -0.332 | [6] 0.582 | [7] 0.409 | saracatinib -0.21 | sotrastaurin -0.032 | alvocidib 0.52 | Tubastatin A 0.264 | [8] 0.018 | defactinib 0.678 | rucaparib 0.54 | [9] 0.226 | encorafenib 0.236 | [10] 0.026

RPL13 (UniProt P26373)
inactive: [1] 0.285 | volasertib 0.744 | [2] -0.053 | epoxomicin -0.635 | [3] 0.084 | [4] 0.461 | [5] -0.306 | rosiglitazone -0.239 | [6] 0.543 | [7] 0.394 | saracatinib -0.213 | sotrastaurin -0.004 | alvocidib 0.484 | Tubastatin A 0.261 | [8] 0.03 | defactinib 0.656 | rucaparib 0.465 | [9] 0.208 | encorafenib 0.259 | [10] 0.052

RPL35 (UniProt P42766)
inactive: [1] 0.205 | volasertib 0.531 | [2] -0.005 | epoxomicin -0.366 | [3] 0.009 | [4] 0.241 | [5] -0.125 | rosiglitazone -0.16 | [6] 0.348 | [7] 0.242 | saracatinib -0.127 | sotrastaurin -0.018 | alvocidib 0.293 | Tubastatin A 0.245 | [8] 0.047 | defactinib 0.373 | rucaparib 0.355 | [9] 0.18 | encorafenib 0.194 | [10] -0.016

RPS6 (UniProt P62753)
inactive: [1] 0.153 | volasertib 0.492 | [2] 0.034 | epoxomicin -0.345 | [3] 0.018 | [4] 0.243 | [5] -0.131 | rosiglitazone -0.152 | [6] 0.233 | [7] 0.245 | saracatinib -0.056 | sotrastaurin 0 | alvocidib 0.374 | Tubastatin A 0.153 | [8] 0.079 | defactinib 0.283 | rucaparib 0.302 | [9] 0.265 | encorafenib 0.183 | [10] -0.142

RPL10A (UniProt P62906)
inactive: [1] 0.275 | volasertib 0.798 | [2] 0 | epoxomicin -0.659 | [3] 0.109 | [4] 0.291 | [5] -0.286 | rosiglitazone -0.339 | [6] 0.546 | [7] 0.441 | saracatinib -0.178 | sotrastaurin -0.011 | alvocidib 0.486 | Tubastatin A 0.263 | [8] 0.056 | defactinib 0.641 | rucaparib 0.422 | [9] 0.262 | encorafenib 0.232 | [10] -0.024
